Assay results as given in PMC10323252.

The chains behind the UniProt entries cited, without tags or fusion partners. Where a name states a change or a piece, a line headed by the entry shows the natural chain unless it says otherwise.
UniProt P20338: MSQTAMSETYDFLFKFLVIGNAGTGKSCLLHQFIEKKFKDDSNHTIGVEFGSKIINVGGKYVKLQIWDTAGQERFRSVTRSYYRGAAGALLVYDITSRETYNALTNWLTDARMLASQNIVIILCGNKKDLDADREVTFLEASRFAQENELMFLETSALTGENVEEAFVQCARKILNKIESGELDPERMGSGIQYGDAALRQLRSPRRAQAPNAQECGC
UniProt Q9NP61: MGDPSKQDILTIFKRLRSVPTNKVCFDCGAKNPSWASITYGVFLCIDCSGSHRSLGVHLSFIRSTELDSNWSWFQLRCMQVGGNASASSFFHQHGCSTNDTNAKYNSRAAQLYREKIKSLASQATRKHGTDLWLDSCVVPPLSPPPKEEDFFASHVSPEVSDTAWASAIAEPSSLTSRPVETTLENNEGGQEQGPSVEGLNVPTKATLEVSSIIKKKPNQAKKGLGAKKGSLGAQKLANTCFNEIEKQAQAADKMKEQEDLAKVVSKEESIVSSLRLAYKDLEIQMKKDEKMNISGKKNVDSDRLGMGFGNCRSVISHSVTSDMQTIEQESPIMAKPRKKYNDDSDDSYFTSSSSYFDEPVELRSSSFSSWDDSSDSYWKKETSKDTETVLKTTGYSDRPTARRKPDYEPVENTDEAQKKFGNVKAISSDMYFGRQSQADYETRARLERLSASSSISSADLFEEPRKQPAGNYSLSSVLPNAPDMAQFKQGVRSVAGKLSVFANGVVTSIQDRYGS
UniProt Q9Y6D5: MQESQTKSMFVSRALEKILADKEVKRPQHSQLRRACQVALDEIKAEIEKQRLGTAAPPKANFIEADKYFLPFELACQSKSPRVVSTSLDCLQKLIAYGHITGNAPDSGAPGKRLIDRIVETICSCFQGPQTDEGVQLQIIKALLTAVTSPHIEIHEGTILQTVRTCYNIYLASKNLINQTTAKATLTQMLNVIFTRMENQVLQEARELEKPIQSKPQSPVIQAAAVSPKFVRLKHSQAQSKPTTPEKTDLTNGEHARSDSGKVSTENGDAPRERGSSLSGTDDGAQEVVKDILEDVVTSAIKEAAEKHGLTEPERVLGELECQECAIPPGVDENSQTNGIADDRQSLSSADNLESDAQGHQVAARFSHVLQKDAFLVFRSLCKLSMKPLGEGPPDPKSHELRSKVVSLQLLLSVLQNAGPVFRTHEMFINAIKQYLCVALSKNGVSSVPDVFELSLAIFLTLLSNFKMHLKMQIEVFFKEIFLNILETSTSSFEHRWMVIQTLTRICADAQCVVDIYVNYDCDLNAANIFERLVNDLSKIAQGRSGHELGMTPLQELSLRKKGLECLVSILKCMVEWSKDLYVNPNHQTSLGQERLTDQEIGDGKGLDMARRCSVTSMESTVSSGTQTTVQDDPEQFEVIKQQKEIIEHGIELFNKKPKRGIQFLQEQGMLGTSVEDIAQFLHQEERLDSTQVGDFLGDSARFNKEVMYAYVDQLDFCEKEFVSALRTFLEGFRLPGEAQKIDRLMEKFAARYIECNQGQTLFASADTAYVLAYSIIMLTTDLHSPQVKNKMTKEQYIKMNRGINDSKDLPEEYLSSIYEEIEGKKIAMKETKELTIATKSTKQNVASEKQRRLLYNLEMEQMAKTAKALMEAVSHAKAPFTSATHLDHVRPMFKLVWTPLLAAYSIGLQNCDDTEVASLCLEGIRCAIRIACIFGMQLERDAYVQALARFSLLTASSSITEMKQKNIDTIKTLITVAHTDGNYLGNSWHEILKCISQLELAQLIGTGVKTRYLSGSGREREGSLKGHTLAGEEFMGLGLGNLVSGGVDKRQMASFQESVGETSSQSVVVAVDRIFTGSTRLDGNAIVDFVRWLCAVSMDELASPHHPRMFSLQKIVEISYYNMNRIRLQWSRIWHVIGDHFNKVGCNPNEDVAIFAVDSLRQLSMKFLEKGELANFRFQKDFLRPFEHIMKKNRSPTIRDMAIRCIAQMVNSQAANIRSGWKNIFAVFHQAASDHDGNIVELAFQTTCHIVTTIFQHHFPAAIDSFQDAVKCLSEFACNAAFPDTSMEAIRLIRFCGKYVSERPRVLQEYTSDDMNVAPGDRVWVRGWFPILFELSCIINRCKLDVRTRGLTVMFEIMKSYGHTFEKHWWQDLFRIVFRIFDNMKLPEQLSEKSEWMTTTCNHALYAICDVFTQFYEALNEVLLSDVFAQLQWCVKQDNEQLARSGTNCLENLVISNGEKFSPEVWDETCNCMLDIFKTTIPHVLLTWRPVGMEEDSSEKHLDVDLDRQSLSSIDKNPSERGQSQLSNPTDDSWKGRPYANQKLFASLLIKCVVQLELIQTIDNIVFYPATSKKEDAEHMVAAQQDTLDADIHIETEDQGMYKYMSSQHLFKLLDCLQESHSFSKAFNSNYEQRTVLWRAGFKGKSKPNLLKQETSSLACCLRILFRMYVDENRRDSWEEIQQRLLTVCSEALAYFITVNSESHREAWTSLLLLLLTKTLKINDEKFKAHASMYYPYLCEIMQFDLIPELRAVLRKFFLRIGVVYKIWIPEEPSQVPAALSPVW
UniProt Q9Y3P9: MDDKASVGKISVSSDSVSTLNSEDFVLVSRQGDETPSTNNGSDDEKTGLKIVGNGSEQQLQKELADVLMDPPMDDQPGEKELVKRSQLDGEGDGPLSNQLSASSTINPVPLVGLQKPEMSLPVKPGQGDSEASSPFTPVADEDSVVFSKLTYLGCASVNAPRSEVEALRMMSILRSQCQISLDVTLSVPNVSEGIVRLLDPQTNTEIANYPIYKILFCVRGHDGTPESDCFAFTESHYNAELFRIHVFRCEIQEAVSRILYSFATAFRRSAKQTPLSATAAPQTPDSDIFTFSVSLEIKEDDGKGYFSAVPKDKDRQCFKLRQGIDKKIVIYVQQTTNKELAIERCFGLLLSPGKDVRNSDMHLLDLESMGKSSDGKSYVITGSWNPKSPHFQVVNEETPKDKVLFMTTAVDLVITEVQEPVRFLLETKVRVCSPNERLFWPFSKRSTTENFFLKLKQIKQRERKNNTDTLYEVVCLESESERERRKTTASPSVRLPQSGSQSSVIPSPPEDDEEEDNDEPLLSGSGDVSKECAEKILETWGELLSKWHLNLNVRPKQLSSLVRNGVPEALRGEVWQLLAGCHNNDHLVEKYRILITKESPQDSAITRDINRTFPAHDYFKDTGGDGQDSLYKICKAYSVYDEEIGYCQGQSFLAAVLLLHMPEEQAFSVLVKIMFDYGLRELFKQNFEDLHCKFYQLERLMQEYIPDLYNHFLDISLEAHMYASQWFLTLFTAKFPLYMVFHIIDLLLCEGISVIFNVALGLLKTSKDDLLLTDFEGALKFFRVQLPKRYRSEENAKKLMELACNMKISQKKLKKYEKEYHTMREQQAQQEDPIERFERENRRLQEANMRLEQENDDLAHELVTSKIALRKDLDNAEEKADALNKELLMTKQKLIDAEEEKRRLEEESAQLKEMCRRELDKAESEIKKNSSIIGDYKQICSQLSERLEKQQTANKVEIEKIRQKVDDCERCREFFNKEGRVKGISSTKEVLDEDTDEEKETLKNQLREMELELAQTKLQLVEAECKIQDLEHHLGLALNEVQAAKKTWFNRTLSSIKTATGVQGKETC
UniProt Q15836: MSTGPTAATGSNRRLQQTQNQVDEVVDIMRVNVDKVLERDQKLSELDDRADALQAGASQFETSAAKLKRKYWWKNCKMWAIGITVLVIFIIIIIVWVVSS
UniProt P05556: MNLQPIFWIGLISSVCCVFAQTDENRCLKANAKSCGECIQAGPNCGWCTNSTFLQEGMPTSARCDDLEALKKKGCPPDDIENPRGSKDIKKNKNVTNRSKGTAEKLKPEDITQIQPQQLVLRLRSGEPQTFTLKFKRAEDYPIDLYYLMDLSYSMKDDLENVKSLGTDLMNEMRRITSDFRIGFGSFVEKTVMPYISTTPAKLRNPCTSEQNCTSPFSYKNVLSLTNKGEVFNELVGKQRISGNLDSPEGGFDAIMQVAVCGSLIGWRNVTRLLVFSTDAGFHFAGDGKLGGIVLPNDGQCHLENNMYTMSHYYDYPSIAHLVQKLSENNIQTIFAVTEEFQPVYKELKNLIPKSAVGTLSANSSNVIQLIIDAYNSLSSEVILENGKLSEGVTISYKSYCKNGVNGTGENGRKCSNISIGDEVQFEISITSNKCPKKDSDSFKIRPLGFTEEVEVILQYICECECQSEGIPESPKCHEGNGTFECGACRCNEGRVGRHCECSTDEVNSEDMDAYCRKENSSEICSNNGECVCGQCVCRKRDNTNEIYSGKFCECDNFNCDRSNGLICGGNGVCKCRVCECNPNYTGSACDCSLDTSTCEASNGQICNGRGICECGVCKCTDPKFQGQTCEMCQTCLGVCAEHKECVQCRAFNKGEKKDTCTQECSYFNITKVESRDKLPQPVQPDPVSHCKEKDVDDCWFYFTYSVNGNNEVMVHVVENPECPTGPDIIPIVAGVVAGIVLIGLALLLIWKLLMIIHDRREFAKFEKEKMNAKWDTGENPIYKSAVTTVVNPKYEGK
UniProt Q96T51: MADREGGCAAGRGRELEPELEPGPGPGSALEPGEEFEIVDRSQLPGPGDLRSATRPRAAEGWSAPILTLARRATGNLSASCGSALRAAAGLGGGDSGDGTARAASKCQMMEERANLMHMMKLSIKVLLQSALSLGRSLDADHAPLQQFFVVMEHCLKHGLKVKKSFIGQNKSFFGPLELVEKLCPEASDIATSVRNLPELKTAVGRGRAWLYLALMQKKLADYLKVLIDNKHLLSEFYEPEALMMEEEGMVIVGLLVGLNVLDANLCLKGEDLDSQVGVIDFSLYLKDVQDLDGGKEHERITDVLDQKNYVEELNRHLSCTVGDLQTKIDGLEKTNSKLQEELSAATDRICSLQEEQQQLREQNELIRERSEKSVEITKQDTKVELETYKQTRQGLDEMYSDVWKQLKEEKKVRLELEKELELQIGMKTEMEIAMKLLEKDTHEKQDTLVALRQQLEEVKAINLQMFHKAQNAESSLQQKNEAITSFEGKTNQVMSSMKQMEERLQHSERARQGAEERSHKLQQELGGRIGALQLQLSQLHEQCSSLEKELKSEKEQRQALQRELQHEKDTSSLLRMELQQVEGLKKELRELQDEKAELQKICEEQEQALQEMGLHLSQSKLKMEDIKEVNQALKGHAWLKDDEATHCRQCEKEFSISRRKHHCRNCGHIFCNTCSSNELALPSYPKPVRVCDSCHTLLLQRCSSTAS
UniProt P61026: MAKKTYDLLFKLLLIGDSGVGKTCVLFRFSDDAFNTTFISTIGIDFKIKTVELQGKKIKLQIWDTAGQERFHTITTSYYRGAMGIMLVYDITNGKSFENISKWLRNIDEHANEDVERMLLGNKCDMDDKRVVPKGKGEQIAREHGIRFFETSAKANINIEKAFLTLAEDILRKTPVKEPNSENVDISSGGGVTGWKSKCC
UniProt O43399: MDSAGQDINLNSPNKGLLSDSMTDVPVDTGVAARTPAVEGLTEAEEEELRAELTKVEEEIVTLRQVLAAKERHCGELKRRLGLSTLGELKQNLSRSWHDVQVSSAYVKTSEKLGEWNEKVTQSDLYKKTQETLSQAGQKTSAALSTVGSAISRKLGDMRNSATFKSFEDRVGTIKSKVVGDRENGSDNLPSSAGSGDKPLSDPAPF
UniProt Q92609: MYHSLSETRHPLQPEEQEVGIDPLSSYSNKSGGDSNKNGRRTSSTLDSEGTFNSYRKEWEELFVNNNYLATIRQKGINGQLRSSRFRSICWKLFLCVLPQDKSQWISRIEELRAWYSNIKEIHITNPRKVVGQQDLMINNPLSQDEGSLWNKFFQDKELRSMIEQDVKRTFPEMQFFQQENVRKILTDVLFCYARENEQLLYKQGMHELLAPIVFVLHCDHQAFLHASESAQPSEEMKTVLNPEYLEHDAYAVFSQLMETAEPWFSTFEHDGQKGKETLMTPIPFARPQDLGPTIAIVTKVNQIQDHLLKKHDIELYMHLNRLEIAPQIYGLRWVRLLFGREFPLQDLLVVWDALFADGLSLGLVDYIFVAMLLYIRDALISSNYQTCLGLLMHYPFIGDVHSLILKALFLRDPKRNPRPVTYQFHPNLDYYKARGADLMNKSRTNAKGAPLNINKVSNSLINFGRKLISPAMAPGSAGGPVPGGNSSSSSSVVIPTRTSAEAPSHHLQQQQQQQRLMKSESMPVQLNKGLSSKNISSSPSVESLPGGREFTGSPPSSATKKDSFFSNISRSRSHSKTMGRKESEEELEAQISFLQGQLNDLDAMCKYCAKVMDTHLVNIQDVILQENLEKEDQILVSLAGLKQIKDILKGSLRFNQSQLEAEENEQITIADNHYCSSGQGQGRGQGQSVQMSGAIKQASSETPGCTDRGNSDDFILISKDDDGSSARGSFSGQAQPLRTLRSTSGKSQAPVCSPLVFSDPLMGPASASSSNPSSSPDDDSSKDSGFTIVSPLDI

What was measured:
Assay in all cases: proximity labelling; BioID: A2780 cells stably expressing mycBirA*-Rab baits (mycBirA* alone as control), 1 uM biotin for 16 h; lysis in 0.4% SDS, 500 mM NaCl buffer; streptavidin microspheres; LC-MS/MS with label-free quantification, four replicates; high-confidence list by SAINTexpress (BFDR<=0.05), longlist by >2-fold enrichment; biotin-modified peptides also scored
[1] = target: mycBirA*–Rab11a (UniProt P62491)
[2] = target: T1, mycBirA*–Rab25 (UniProt P57735)
T1 sequence: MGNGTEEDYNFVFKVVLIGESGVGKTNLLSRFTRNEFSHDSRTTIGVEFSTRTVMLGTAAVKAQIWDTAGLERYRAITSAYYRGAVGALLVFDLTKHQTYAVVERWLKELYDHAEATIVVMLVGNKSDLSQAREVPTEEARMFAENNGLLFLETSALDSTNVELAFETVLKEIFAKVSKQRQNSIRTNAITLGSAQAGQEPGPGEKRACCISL

[3] = target: mycBirA*–Rab4a (UniProt P20338)
[4] = target: mycBirA*–Rab11a (UniProt P62491); remark: listed apart in the source
[5] = target: T1, mycBirA*–Rab25; remark: listed apart in the source
[6] = target: mycBirA*–Rab4a (UniProt P20338); remark: listed apart in the source
[7] = target: T2, mycBirA*–Rab11a, P62491; conditions: remark: other sources report otherwise
T2 chain: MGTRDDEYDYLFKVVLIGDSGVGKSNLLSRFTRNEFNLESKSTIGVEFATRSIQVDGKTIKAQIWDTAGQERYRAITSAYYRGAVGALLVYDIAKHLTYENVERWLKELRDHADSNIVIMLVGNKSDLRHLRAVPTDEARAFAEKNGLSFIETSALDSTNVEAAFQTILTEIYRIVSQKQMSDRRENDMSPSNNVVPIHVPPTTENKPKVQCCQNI

Molecule: ARFGAP3 (from UniProt Q9NP61 1-516)
- binding [1]: binds
- binding [2]: binds
- binding [3]: binds

Molecule: ARFGEF2 (from UniProt Q9Y6D5 1-1785)
- binding [3]: binds

Molecule: FAM91A1 (from UniProt Q658Y4 1-838)
- binding [3]: binds

Molecule: RabGAP1 (from UniProt Q9Y3P9 1-1069)
- binding [1]: binds
- binding [2]: binds
- binding [3]: binds

Molecule: Rab7a (from UniProt P51149 1-207)
- binding [3]: binds

B1: VPS8 (protein, UniProt Q8N3P4 1-1428)
chain: MENEPDHENVEQSLCAKTSEEELNKSFNLEASLSKFSYIDMDKELEFKNDLIDDKEFDIPQVDTPPTLESILNETDDEDESFILEDPTLLNIDTIDSHSYDTSSVASSDSGDRTNLKRKKKLPDSFSLHGSVMRHSLLKGISAQIVSAADKVDAGLPTAIAVSSLIAVGTSHGLALIFGKDQNQALRLCLGSTSVGGQYGAISALSINNDCSRLLCGFAKGQITMWDLASGKLLRSITDAHPPGTAILHIKFTDDPTLAICNDSGGSVFELTFKRVMGVRTCESRCLFSGSKGEVCCIEPLHSKPELKDHPITQFSLLAMASLTKILVIGLKPSLKVWMTFPYGRMDPSSVPLLAWHFVAVQNYVNPMLAFCRGDVVHFLLVKRDESGAIHVTKQKHLHLYYDLINFTWINSRTVVLLDSVEKLHVIDRQTQEELETVEISEVQLVYNSSHFKSLATGGNVSQALALVGEKACYQSISSYGGQIFYLGTKSVYVMMLRSWRERVDHLLKQDCLTEALALAWSFHEGKAKAVVGLSGDASKRKAIVADRMVEILFHYADRALKKCPDQGKIQVMEQHFQDMVPVIVDYCLLLQRKDLLFSQMYDKLSENSVAKGVFLECLEPYILSDKLVGITPQVMKDLIVHFQDKKLMENVEALIVHMDITSLDIQQVVLMCWENRLYDAMIYVYNRGMNEFISPMEKLFRVIAPPLNAGKTLTDEQVVMGNKLLVYISCCLAGRAYPLGDIPEDLVPLVKNQVFEFLIRLHSAEASPEEEIYPYIRTLLHFDTREFLNVLALTFEDFKNDKQAVEYQQRIVDILLKVMVENSDFTPSQVGCLFTFLARQLAKPDNTLFVNRTLFDQVLEFLCSPDDDSRHSERQQVLLELLQAGGIVQFEESRLIRMAEKAEFYQICEFMYEREHQYDKIIDCYLRDPLREEEVFNYIHNILSIPGHSAEEKQSVWQKAMDHIEELVSLKPCKAAELVATHFSGHIETVIKKLQNQVLLFKFLRSLLDPREGIHVNQELLQISPCITEQFIELLCQFNPTQVIETLQVLECYRLEETIQITQKYQLHEVTAYLLEKKGDIHGAFLIMLERLQSKLQEVTHQGENTKEDPSLKDVEDTMVETIALCQRNSHNLNQQQREALWFPLLEAMMAPQKLSSSAIPHLHSEALKSLTMQVLNSMAAFIALPSILQRILQDPVYGKGKLGEIQGLILGMLDTFNYEQTLLETTTSLLNQDLHWSLCNLRASVTRGLNPKQDYCSICLQQYKRRQEMADEIIVFSCGHLYHSFCLQNKECTVEFEGQTRWTCYKCSSSNKVGKLSENSSEIKKGRITPSQVKMSPSYHQSKGDPTAKKGTSEPVLDPQQIQAFDQLCRLYRGSSRLALLTELSQNRSSESYRPFSGSQSAPAFNSIFQNENFQLQLIPPPVTED
- binding [4]: binds
- binding [5]: binds
- binding [6]: binds

B3: SNX4, O95219 1-450 (protein)
chain: MEQAPPDPERQLQPAPLEPLGSPDAGLGAAVGKEAEGAGEESSGVDTMTHNNFWLKKIEISVSEAEKRTGRNAMNMQETYTAYLIETRSVEHTDGQSVLTDSLWRRYSEFELLRSYLLVYYPHIVVPPLPEKRAEFVWHKLSADNMDPDFVERRRIGLENFLLRIASHPILCRDKIFYLFLTQEGNWKETVNETGFQLKADSRLKALNATFRVKNPDKRFTDLKHYSDELQSVISHLLRVRARVADRLYGVYKVHGNYGRVFSEWSAIEKEMGDGLQSAGHHMDVYASSIDDILEDEEHYADQLKEYLFYAEALRAVCRKHELMQYDLEMAAQDLASKKQQCEELVTGTVRTFSLKGMTTKLFGQETPEQREARIKVLEEQINEGEQQLKSKNLEGREFVKNAWADIERFKEQKNRDLKEALISYAVMQISMCKKGIQVWTNAKECFSKM
- binding [7]: binds

B4: syntaxin 6 (protein, UniProt O43752 1-255)
chain: MSMEDPFFVVKGEVQKAVNTAQGLFQRWTELLQDPSTATREEIDWTTNELRNNLRSIEWDLEDLDETISIVEANPRKFNLDATELSIRKAFITSTRQVVRDMKDQMSTSSVQALAERKNRQALLGDSGSQNWSTGTTDKYGRLDRELQRANSHFIEEQQAQQQLIVEQQDEQLELVSGSIGVLKNMSQRIGGELEEQAVMLEDFSHELESTQSRLDNVMKKLAKVSHMTSDRRQWCAIAILFAVLLVVLILFLVL
- binding [4]: binds
- binding [5]: binds
- binding [6]: binds

More lines, now with the values ahead:

- binding [1]: binds
- binding [2]: binds
- binding [3]: binds
Molecule: VAMP3 (from UniProt Q15836 1-100)

- binding [1]: binds
- binding [2]: binds
- binding [3]: binds
Molecule: ITGB1 (from UniProt P05556 21-798)

- binding [3]: binds
Molecule: RUFY1 (from UniProt Q96T51 1-708)

- binding [1]: no binding
- binding [2]: no binding
- binding [3]: no binding
Molecule: Rab10 (from UniProt P61026 1-200)

- binding [1]: binds
- binding [2]: binds
- binding [3]: binds
Molecule: TPD52L2 (from UniProt O43399 1-206)

- binding [1]: binds
- binding [2]: binds
- binding [3]: binds
Molecule: TBC1D5 (from UniProt Q92609 1-795)

- binding [4]: binds
- binding [5]: binds
- binding [6]: binds
B2: VPS51 (protein, UniProt Q9UID3 1-782)
chain: MAAAAAAGPSPGSGPGDSPEGPEGEAPERRRKAHGMLKLYYGLSEGEAAGRPAGPDPLDPTDLNGAHFDPEVYLDKLRRECPLAQLMDSETDMVRQIRALDSDMQTLVYENYNKFISATDTIRKMKNDFRKMEDEMDRLATNMAVITDFSARISATLQDRHERITKLAGVHALLRKLQFLFELPSRLTKCVELGAYGQAVRYQGRAQAVLQQYQHLPSFRAIQDDCQVITARLAQQLRQRFREGGSGAPEQAECVELLLALGEPAEELCEEFLAHARGRLEKELRNLEAELGPSPPAPDVLEFTDHGGSGFVGGLCQVAAAYQELFAAQGPAGAEKLAAFARQLGSRYFALVERRLAQEQGGGDNSLLVRALDRFHRRLRAPGALLAAAGLADAATEIVERVARERLGHHLQGLRAAFLGCLTDVRQALAAPRVAGKEGPGLAELLANVASSILSHIKASLAAVHLFTAKEVSFSNKPYFRGEFCSQGVREGLIVGFVHSMCQTAQSFCDSPGEKGGATPPALLLLLSRLCLDYETATISYILTLTDEQFLVQDQFPVTPVSTLCAEARETARRLLTHYVKVQGLVISQMLRKSVETRDWLSTLEPRNVRAVMKRVVEDTTAIDVQVGLLYEEGVRKAQSSDSSKRTFSVYSSSRQQGRYAPSYTPSAPMDTNLLSNIQKLFSERIDVFSPVEFNKVSVLTGIIKISLKTLLECVRLRTFGRFGLQQVQVDCHFLQLYLWRFVADEELVHLLLDEVVASAALRCPDPVPMEPSVVEVICERG

Read-outs that look alike come from different tables or passages of the source. No constants are given. Whether binding was seen depends on the method and setting. In cells and extracts the contact can be indirect. These calls come from enrichment with a bait or labelling near it, and not all partners need be listed. For some assays here: No binding means not detected with the bait. For some assays here: Tags and fused reporters may be left off the sequences shown. One block for each molecule: values may come before it.
